The assay concerns the target wild-type Flag-CTNNA1 (in HEK293T cells) (UniProt P35221). Put plainly: co-IP; cytoplasmic extracts (digitonin buffer) of HEK293T cells co-transfected with Flag-tagged CTNNA1 constructs and YAP-GFP, Flag-trap; cells treated with DMSO or BafA1 200 nM overnight, or with or without EBSS for 6 h.

Chains of the proteins cited; added tags and fusions are not shown.
UniProt P35221: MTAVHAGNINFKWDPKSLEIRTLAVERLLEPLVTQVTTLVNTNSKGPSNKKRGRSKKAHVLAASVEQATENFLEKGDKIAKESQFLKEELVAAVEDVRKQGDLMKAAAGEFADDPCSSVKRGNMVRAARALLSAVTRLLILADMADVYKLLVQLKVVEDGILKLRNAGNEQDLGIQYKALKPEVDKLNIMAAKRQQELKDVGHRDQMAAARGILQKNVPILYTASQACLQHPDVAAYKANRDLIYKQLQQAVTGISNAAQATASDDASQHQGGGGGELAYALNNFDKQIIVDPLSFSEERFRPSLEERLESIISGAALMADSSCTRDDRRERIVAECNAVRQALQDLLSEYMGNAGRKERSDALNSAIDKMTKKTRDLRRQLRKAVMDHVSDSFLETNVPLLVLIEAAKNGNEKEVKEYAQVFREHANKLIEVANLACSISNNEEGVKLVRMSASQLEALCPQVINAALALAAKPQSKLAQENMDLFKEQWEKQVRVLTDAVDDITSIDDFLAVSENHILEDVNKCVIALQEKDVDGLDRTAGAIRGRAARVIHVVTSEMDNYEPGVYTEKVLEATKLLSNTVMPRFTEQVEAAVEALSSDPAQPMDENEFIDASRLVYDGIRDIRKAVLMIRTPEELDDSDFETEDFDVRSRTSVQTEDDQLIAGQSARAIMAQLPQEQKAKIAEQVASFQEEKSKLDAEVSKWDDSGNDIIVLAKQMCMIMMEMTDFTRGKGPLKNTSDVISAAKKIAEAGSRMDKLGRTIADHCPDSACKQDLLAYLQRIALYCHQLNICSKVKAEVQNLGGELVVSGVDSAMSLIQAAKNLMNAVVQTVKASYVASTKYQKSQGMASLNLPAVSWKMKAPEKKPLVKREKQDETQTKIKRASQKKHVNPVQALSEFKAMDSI
UniProt P46937: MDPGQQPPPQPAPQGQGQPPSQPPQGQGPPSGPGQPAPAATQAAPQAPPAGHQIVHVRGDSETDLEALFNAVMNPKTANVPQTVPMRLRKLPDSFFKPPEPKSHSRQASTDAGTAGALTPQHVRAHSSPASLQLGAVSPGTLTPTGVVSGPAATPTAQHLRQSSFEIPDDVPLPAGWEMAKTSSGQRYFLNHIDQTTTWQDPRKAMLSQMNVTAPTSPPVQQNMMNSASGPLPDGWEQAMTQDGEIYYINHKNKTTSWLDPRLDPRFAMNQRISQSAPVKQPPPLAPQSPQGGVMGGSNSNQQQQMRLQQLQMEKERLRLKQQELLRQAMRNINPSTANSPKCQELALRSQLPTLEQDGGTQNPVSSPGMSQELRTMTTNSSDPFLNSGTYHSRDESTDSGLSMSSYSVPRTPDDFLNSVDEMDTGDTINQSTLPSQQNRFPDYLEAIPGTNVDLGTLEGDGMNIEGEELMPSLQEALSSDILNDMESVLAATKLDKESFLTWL

These are yes or no findings as the source states them, for the method shown. Binding seen in cells or lysates may run through a third protein. Some binding calls cover weakened binding; strength is not graded here.

Consider GFP-YAP (from UniProt P46937 1-504), for which the binding entry is “binds”.

The record behind these values is paper PMC7969950.
